Measurements from patent publication US20130324533A1, “METHOD OF DETECTING RESISTANCE TO CANCER THERAPY” (NATIONAL UNIVERSITY OF SINGAPORE, priority 2010, published 2013).

Assays:
Assay in all cases: cells
[1] = tested on: KCL22 cells; conditions: Homo sapiens, KCL-22, read-out: IC50 of cell line treated with imatinib
Procedure: (§1) Apoptosis was measured using the Annexin V-FITC/7-AAD kit (Beckman Coulter) according to the manufacturer's instructions. Briefly, treated and untreated cells were Annexin V-FITC- and 7-AAD-stained in 1× binding buffer for 15 min at room temperature and then analyzed by flow cytometry.

[2] = tested on: KYO-1 cells; conditions: Homo sapiens, KYO1, read-out: IC50 of cell line treated with imatinib
Procedure: as §1

[3] = tested on: NCO2 cells; conditions: Homo sapiens, read-out: IC50 of cell line treated with imatinib
Procedure: as §1

Cc1ccc(NC(=O)c2ccc(CN3CCN(C)CC3)cc2)cc1Nc1nccc(-c2cccnc2)n1 [imatinib]
IC50 [1]: > 10000 nM
IC50 [2]: 270 nM
IC50 [3]: 340 nM
